PubChem BioAssay AID1053208, Peter MacCallum Cancer Centre, 2014

- Assay: 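Synthetic lethal interactions between gene loss and doxorubicin in osteosarcoma cells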 (primary screen)
- System: mouse osteosarcoma cells, early-passage culture from an engineered mouse model of fibroblastic bone tumour
- Reagents: siRNA pool against mouse genes, 40 nM
- Timing: about 120 h (48 h before drug, then 72 h with drug)
- Treatment: doxorubicin 100 nM for 72 h, roughly 30-40% inhibitory dose
- Read-out: 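Luminescent ATP signal taken as viability with or without 100 nM doxorubicin for 72 h; mean of two wells set against non-targeting siRNA and turned into robust z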
- Reading the numbers: viability z-score with doxorubicin: higher = more viable cells under doxorubicin; viability z-score without drug: higher = more viable cells with knock-down alone
- Hit rule: 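a pool counts as active when its viability z-score with doxorubicin is -2 or below and its z-score without drug lies between -2 and 2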
This is one part, drawn at random, of about 17,000 deposited reagents. 788 of them (4.7%) count as active. 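Calls rest on z-score classes alone; an extra cut-off of viability at most 70% of control was not applied to them.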 Further read-outs or replicates are left out here.

Slc45a1: combined z-score class = no change with or without drug; viability z-score with doxorubicin = -0.45; viability z-score without drug = 0.51; Call = inactive
Mast4: combined z-score class = no change with or without drug; viability z-score with doxorubicin = 1.24; viability z-score without drug = 0.17; Call = inactive
AY358078: combined z-score class = no change with or without drug; viability z-score with doxorubicin = -0.67; viability z-score without drug = -0.67; Call = inactive
Hsbp1: combined z-score class = no change with or without drug; viability z-score with doxorubicin = 0.11; viability z-score without drug = 0.84; Call = inactive
Nrxn1: combined z-score class = no change with or without drug; viability z-score with doxorubicin = 0.34; viability z-score without drug = 0.51; Call = inactive
Tcn2: combined z-score class = no change with or without drug; viability z-score with doxorubicin = -1.69; viability z-score without drug = -0.51; Call = inactive
Cyp4a14: combined z-score class = no change with or without drug; viability z-score with doxorubicin = -0.56; viability z-score without drug = -0.17; Call = inactive
Ranbp3: combined z-score class = no change with or without drug; viability z-score with doxorubicin = -1.12; viability z-score without drug = -1.35; Call = inactive
Hao1: combined z-score class = no change with or without drug; viability z-score with doxorubicin = 0.22; viability z-score without drug = -0.34; Call = inactive
Vmn1r179: combined z-score class = no change with or without drug; viability z-score with doxorubicin = -1.69; viability z-score without drug = -1.18; Call = inactive
Mettl9: combined z-score class = no change with or without drug; viability z-score with doxorubicin = 1.01; viability z-score without drug = -0.17; Call = inactive
Adgrf4: combined z-score class = no change with or without drug; viability z-score with doxorubicin = -0.22; viability z-score without drug = 0.17; Call = inactive

Laid out differently: entries from further up.
Nrxn1
- combined z-score class: no change with or without drug
- viability z-score with doxorubicin: 0.34
- viability z-score without drug: 0.51
- Call: inactive

Tcn2
- combined z-score class: no change with or without drug
- viability z-score with doxorubicin: -1.69
- viability z-score without drug: -0.51
- Call: inactive

Cyp4a14
- combined z-score class: no change with or without drug
- viability z-score with doxorubicin: -0.56
- viability z-score without drug: -0.17
- Call: inactive

Ranbp3
- combined z-score class: no change with or without drug
- viability z-score with doxorubicin: -1.12
- viability z-score without drug: -1.35
- Call: inactive

Hao1
- combined z-score class: no change with or without drug
- viability z-score with doxorubicin: 0.22
- viability z-score without drug: -0.34
- Call: inactive

Additional results follow:
Itih1: combined z-score class = low cell count with doxorubicin only; viability z-score with doxorubicin = -2.92; viability z-score without drug = 1.18; Call = active
Ubl7: combined z-score class = no change with or without drug; viability z-score with doxorubicin = -0.22; viability z-score without drug = 0.51; Call = inactive
Gbp4: combined z-score class = no change with or without drug; viability z-score with doxorubicin = -0.22; viability z-score without drug = -1.01; Call = inactive
Ralgps2: combined z-score class = no change with or without drug; viability z-score with doxorubicin = 1.35; viability z-score without drug = 0.51; Call = inactive
Serpinb8: combined z-score class = no change with or without drug; viability z-score with doxorubicin = 1.69; viability z-score without drug = 0.17; Call = inactive
Ifi44: combined z-score class = no change with or without drug; viability z-score with doxorubicin = -0.9; viability z-score without drug = -1.52; Call = inactive
Fv4: combined z-score class = high cell count without drug only; viability z-score with doxorubicin = 0.9; viability z-score without drug = 2.02; Call = inactive
Mccc2: combined z-score class = no change with or without drug; viability z-score with doxorubicin = -0.34; viability z-score without drug = -0.51; Call = inactive
Ifi205: combined z-score class = no change with or without drug; viability z-score with doxorubicin = -0.11; viability z-score without drug = -0.51; Call = inactive
Atp6v1c2: combined z-score class = no change with or without drug; viability z-score with doxorubicin = -1.01; viability z-score without drug = -0.17; Call = inactive
Ypel3: combined z-score class = no change with or without drug; viability z-score with doxorubicin = -1.35; viability z-score without drug = -0.67; Call = inactive
Vps45: combined z-score class = no change with or without drug; viability z-score with doxorubicin = 0.9; viability z-score without drug = 0.34; Call = inactive
Mthfr: combined z-score class = no change with or without drug; viability z-score with doxorubicin = -0.79; viability z-score without drug = -1.69; Call = inactive
Plxnb1: combined z-score class = no change with or without drug; viability z-score with doxorubicin = 0.22; viability z-score without drug = -1.18; Call = inactive
Ints3: combined z-score class = no change with or without drug; viability z-score with doxorubicin = -0.9; viability z-score without drug = 0.17; Call = inactive
Vmn1r188: combined z-score class = high cell count with and without drug; viability z-score with doxorubicin = 4.27; viability z-score without drug = 3.71; Call = inactive
Scn4a: combined z-score class = no change with or without drug; viability z-score with doxorubicin = -0.45; viability z-score without drug = -0.17; Call = inactive
Aldob: combined z-score class = low cell count with and without drug; viability z-score with doxorubicin = -3.04; viability z-score without drug = -2.53; Call = inactive
Pirt: combined z-score class = no change with or without drug; viability z-score with doxorubicin = 0.11; viability z-score without drug = 0; Call = inactive
Il4i1: combined z-score class = no change with or without drug; viability z-score with doxorubicin = 0.34; viability z-score without drug = -0.17; Call = inactive
Acyp1: combined z-score class = no change with or without drug; viability z-score with doxorubicin = 0.22; viability z-score without drug = 0.51; Call = inactive
Piwil1: combined z-score class = no change with or without drug; viability z-score with doxorubicin = 0.34; viability z-score without drug = 0.84; Call = inactive
H1f5: combined z-score class = no change with or without drug; viability z-score with doxorubicin = 0; viability z-score without drug = -0.34; Call = inactive
Olfr100: combined z-score class = high cell count with doxorubicin only; viability z-score with doxorubicin = 2.02; viability z-score without drug = 0; Call = inactive
